From CN114478784A come the findings set out here.

Amino acid sequences for entries named in this document (tags omitted).
UniProt P09104: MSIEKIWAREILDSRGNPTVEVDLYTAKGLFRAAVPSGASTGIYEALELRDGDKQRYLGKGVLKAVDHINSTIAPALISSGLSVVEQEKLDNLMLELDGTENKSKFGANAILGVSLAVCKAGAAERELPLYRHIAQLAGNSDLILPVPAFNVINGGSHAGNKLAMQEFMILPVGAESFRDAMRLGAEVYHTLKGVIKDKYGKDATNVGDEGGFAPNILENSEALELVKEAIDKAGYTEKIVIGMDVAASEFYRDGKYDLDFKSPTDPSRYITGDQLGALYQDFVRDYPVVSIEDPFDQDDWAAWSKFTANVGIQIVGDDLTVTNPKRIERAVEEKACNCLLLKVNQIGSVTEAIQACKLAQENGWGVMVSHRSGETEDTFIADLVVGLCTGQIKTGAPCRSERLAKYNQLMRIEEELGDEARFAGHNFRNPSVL

Results are given in words; binding and its absence hold for the method and conditions named. Some binding calls cover weakened binding; strength is not graded here.

Experiment [1] has as its target 纯化的ENO2蛋白 (purified ENO2 protein coated in Example 7) (UniProt P09104). As to the kind of experiment: ELISA result of step 2, restated after the immunofluorescence expression check. On the technique in general: In an ELISA, binding on a coated surface is turned into a signal by an enzyme label.
Experiment [2] has the same target. As to the kind of experiment: ELISA, purified ENO2 coated at 100 ng/well, 293T supernatant, HRP secondary, OD450.

Consider “重组1C5单克隆抗体 (1C5mG1+1C5mk co-transfected in 293T cells) (from UniProt P01868 1-324; P01837 1-107) (antibody)”, for which the binding entry in experiment [1] and in experiment [2] was “binds” each time.
